The exact form of at least one protein or probe is not confirmed. Weaker means in comparison with the reference protein, sequence or condition of that experiment. At least one verdict rests on a figure or table, not on a statement of the authors. Protein sequences can lack the tags named with them.

This series has as its target T1, TBX5 T-box domain (UniProt Q99593).
T1 sequence (looked up): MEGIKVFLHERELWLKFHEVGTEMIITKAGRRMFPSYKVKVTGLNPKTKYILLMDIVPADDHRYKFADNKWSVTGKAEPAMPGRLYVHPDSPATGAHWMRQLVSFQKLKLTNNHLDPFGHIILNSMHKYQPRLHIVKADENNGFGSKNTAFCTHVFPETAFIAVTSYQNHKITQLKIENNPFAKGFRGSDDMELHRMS
Put plainly: EMSA. The following applies: T-box or full-length not stated, 50 mM NaCl, 10 mM Tris-HCl pH 8.0, 10% glycerol, 5 nM dsDNA, protein 50-2000 nM, 30 min 30 C then 30 min room temperature, 6% PAGE 0.5x TBE at 4 C, recombinant protein, residues 51-248, protein details: 6xHis, label: IR-700 (5' of bottom strand, primer S20).

Consider “AGGACTTCACAGACACTACTCGTGCCAATGCCGCCGTAAG (double strand) [rs7790964-ref]”, for which the binding result (ref allele) is “binds”.

Regarding “AGGACTTCATAGACACTACTCGTGCCAATGCCGCCGTAAG (double strand) [rs7790964-alt]”, the binding result (alt allele, decreased vs ref) is recorded as “binds more weakly”.

As to “GCCGGCAGAGCTGACAGGCGTGCCAATGCCGCCGTAAG (double strand) [chr1:57623182-57623200]”, under “middle SVM score”, the binding result is reported as “binds more weakly”.

In the case of “TGGTGCTGACAGCTGGGACGTGCCAATGCCGCCGTAAG (double strand) [chr2:30359836-30359854]”, for the setting “highest SVM score”, the binding result is on record as “binds”.

With “TTAAGAGAGGGTCAATGATACGTGCCAATGCCGCCGTAAG (double strand) [rs7612445-ref]”, under “ref allele, lower than alt”, the binding result is reported as “binds more weakly”.

With “TTAAGAGAGTGTCAATGATACGTGCCAATGCCGCCGTAAG (double strand) [rs7612445-alt]”, the binding result (alt allele, increased vs ref) is recorded as “binds”.

These data come from publication PMC10750078.
